PubChem BioAssay AID504764 – Drosophila RNAi Screening Center – 2011
Aim: 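Genes whose knock-down alters Notch-dependent transcription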 (primary screen). Cell system: Drosophila Kc167 cells. Reagent: long dsRNA against Drosophila genes. Time to read-out: about 5 days (4 days dsRNA, then 24 h after transfection). Treatment: transfection of constitutively active membrane-tethered Notch lacking the extracellular domain, read 24 h later. Measured: 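Firefly luciferase from an E(spl)m3 reporter with active Notch, plus control-promoter and uninduced reporter wells for normalisation; unnormalised counts, duplicate wells a and b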. Direction: induced reporter light, run 1, well a and induced reporter light, run 1, well b: higher = more light from the Notch target reporter with active Notch; control promoter light, run 1, well a and control promoter light, run 1, well b: higher = more light from the viral control promoter (cell number, transfection, viability); uninduced reporter light, run 1, well a: higher = more light from the Notch target reporter without active Notch. Hit rule: 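Hit if the duplicate-averaged log2 ratio of induced to control-promoter light gives a plate-wise z beyond ±2, or induced to uninduced beyond ±1.8; weak-control or discordant-duplicate wells dropped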. Meaning of the calls: active = modifier hit (raised or lowered Notch signal); inactive = not a hit.
In all, the deposit lists about 22,000 reagents; this is a random part of those that have a named target and a result. In the full data, 403 (1.9%) got an active call. 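Unnormalised raw counts per well; ratio z-scores behind the hit calls and whether each hit raises or lowers signal are not deposited.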 Reagents against one gene are numbered here. A plus sign joins genes that one reagent is predicted to hit. Reagent sequences are not shown. Not stated in the record: the amount of reagent.

gene knocked down	reagent	induced reporter light, run 1, well a	induced reporter light, run 1, well b	control promoter light, run 1, well a	control promoter light, run 1, well b	uninduced reporter light, run 1, well a	Outcome
Cpr47Eb	1	1.12e5	1.38e5	1.30e5	1.28e5	10235	inactive
CG17260	1	98440	81995	76465	96900	7235	inactive
lobo	1	1.70e5	1.54e5	1.96e5	1.65e5	15165	inactive
lobo	2	1.39e5	1.29e5	1.61e5	1.80e5	11005	inactive
CG32548	1	73685	58120	89610	70755	9510	inactive
CG32548	2	99800	1.04e5	65825	55980	11295	inactive
vih	1	1.46e5	1.19e5	2.74e5	2.31e5	9475	active
CG10864	1	2.04e5	1.58e5	2.19e5	2.20e5	13185	inactive
Nepl17	1	1.34e5	91690	1.79e5	1.64e5	9560	inactive
Phs	1	1.56e5	1.25e5	1.13e5	1.20e5	10028	inactive
CG34283	1	2.22e5	1.98e5	3.11e5	3.26e5	13655	inactive
CG10559	1	1.76e5	1.66e5	2.23e5	2.26e5	14890	inactive
Sodq	1	1.77e5	2.13e5	2.34e5	2.20e5	13825	inactive
Cyt-c1L	1	1.32e5	1.20e5	1.86e5	1.64e5	12600	inactive
gfzf	1	90495	1.52e5	87400	92215	11690	inactive
CG10702	1	2.11e5	2.33e5	1.73e5	2.04e5	17500	inactive
Cpr49Aa	1	94320	91570	1.21e5	1.12e5	7980	inactive
CG10286	1	1.33e5	1.02e5	86135	74710	9575	inactive
ms(3)76Ba	1	1.01e5	96590	1.21e5	96355	8910	inactive
Appl	1	1.69e5	1.67e5	1.65e5	1.76e5	10810	inactive
Or49b	1	1.05e5	87800	1.03e5	1.07e5	8955	inactive
CG3097	1	41920	40450	76600	62540	3335	inactive
pon	1	1.56e5	1.70e5	4.01e5	2.80e5	13010	inactive
dyw	1	1.21e5	1.08e5	1.88e5	2.00e5	9365	inactive
side-VIII	1	1.27e5	1.38e5	1.96e5	1.54e5	10770	inactive
side-VIII	2	1.03e5	1.10e5	1.63e5	1.51e5	8180	inactive
side-VIII	3	1.40e5	1.19e5	1.32e5	1.52e5	13240	inactive
CG9997	1	7485	9660	12005	11228	660	inactive
CG11550	1	1.21e5	1.17e5	2.03e5	2.00e5	8205	inactive
upd3	1	26980	33050	26535	23620	2710	inactive
upd3	2	73050	83135	79505	81500	10230	inactive
upd3	3						inactive
TMEM216 + CG11760	1	1.42e5	1.62e5	1.20e5	1.27e5	13175	inactive
CG31882	1	1.38e5	1.49e5	1.36e5	1.56e5	11455	inactive
CG1722	1	83630	89460	86820	1.05e5	10015	inactive
dsx-c73A	1	1.92e5	1.83e5	2.86e5	2.41e5	19820	inactive
dsx-c73A	2	1.76e5	1.51e5	2.13e5	1.84e5	11540	inactive
dsx-c73A	3	1.74e5	1.72e5	2.06e5	1.48e5	7975	inactive
Cth	1	89600	93340	1.88e5	2.26e5	8795	inactive
CG7420	1	2.25e5	2.10e5	2.45e5	2.55e5	20265	inactive
CG16758	1	1.77e5	2.02e5	2.27e5	2.39e5	11350	inactive
CG16758	2	1.11e5	93490	2.02e5	2.00e5	7265	inactive
Rab11	1	1.94e5	1.95e5	1.96e5	2.10e5	14400	inactive
CG11961	1	85515	1.14e5	1.78e5	2.13e5	8340	inactive
CG15482	1	1.31e5	1.26e5	1.14e5	1.27e5	11270	inactive
CG33099	1	1.61e5	1.58e5	2.80e5	2.07e5	13270	inactive
apn	1	2.33e5	2.82e5	2.20e5	2.36e5	19832	inactive
CG17490	1	85975	55510	68140	66540	7790	inactive
CG17490	2	48610	48375	38345	44565	1828	inactive
lds	1	1.04e5	93855	65080	75730	7695	inactive

Not a retest: an excerpt of the list.
gene knocked down	reagent	induced reporter light, run 1, well a	induced reporter light, run 1, well b	control promoter light, run 1, well a	control promoter light, run 1, well b	uninduced reporter light, run 1, well a	Outcome
CG10559	1	1.76e5	1.66e5	2.23e5	2.26e5	14890	inactive
Sodq	1	1.77e5	2.13e5	2.34e5	2.20e5	13825	inactive
Cyt-c1L	1	1.32e5	1.20e5	1.86e5	1.64e5	12600	inactive
gfzf	1	90495	1.52e5	87400	92215	11690	inactive
